Laboratory results: PubChem BioAssay AID720505 (Drosophila RNAi Screening Center, 2013)
Test: 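Genes needed for store-operated calcium entry in fly cells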 (primary screen). Cells: Drosophila S2R+ cells. Reagent: long dsRNA against Drosophila genes. Treatment: thapsigargin (2 µM) in calcium-free buffer to empty internal stores, then 2 mM calcium added back. Detection: 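Fluo-4 signal in 384-well plates read on a FLIPR after thapsigargin (2 µM, calcium-free) store depletion and 2 mM calcium add-back; unnormalised mean endpoint per well; screen run twice, selected wells retested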. Scale: calcium signal and retest calcium signal: higher = more calcium entry after store depletion. Rule for the call: 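Knock-downs counted as hits when calcium entry dropped relative to STIM1 positive and Rho1 negative controls present on each plate; roughly 1500 genes called, with reductions of differing size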. Calls: active = called as lowering calcium entry; inactive = not called.
The deposit covers about 20,000 reagents; shown is a random part of those that have a named target and a result. In the full data, about 2,100 (10%) got an active call. 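Raw plate signals without normalisation; calls rest on control-based scores that were not deposited; replicate 2 separates called from uncalled poorly.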 Entries without a mark were called inactive. Reagents against one gene are numbered here. A plus sign joins genes that one reagent is predicted to hit. Reagent sequences are not shown. Not stated in the record: the amount of reagent, the time to read-out.

Gene | dsRNA no. | calcium signal, replicate 1 | calcium signal, replicate 2 | retest calcium signal, replicate 1 | retest calcium signal, replicate 2
CG18371 (GeneID 36556) | 1 | 103 | 161 | – | –
spn-B (GeneID 41746) | 1 | 75.3 (active) | 85.4 | – | –
CG13231 (GeneID 36169) | 1 | 119 | 134 | – | –
Cse1 (GeneID 35016) | 1 | 83 | 79 | 82.2 | 102
CG7149 (GeneID 34063) | 1 | 124 | 216 | – | –
CG3061 (GeneID 41707) | 1 | 126 | 142 | – | –
CG5969 (GeneID 40269) | 1 | 109 | 104 | – | –
Or74a (GeneID 39929) | 1 | 36.4 (active) | 124 | – | –
Ank (GeneID 43770) | 1 | 107 | 104 | – | –
Fer1HCH (GeneID 46415) | 1 | 94 | 156 | – | –
CG13742 + CNT1 | 1 | 83.2 | 141 | – | –
Neurl4 (GeneID 39558) | 1 | 107 | 126 | – | –
Polr3K + Tcs1 | 1 | 127 | 118 | – | –
CG3097 (GeneID 31503) | 1 | 256 | 109 | – | –
ETH + asRNA:CR43257 | 1 | 108 | 144 | – | –
fdl (GeneID 250735) | 1 | 108 | 256 | – | –
CG3062 (GeneID 31396) | 1 | 229 | 93.8 | – | –
Osi9 (GeneID 40763) | 1 | 83.2 | 111 | – | –
RpL13A (GeneID 40687) | 1 | 107 | 80.7 | – | –
CG13876 (GeneID 38031) | 1 | 87.8 | 152 | – | –
CG7432 (GeneID 42347) | 1 | 249 | 198 | – | –
CG13841 (GeneID 50061) | 1 | 126 | 125 | – | –
CG31633 (GeneID 33931) | 1 | 150 | 134 | – | –
Saysd1 (GeneID 43029) | 1 | 290 | 170 | – | –
Syt14 (GeneID 40544) | 1 | 84.5 | 193 | – | –
Sfxn1-3 (GeneID 40552) | 1 | 106 | 161 | – | –
CG31673 (GeneID 35348) | 1 | 95.9 | 126 | – | –
CG43307 (GeneID 12798569) | 1 | 117 | 149 | 108 | 119
CG42582 (retired record) (GeneID 8673986) | 1 | 88.1 | 9808 | – | –
Las (GeneID 40259) | 1 | 61.3 (active) | 119 | – | –
CG13674 (GeneID 38921) | 1 | 90.8 | 77.2 | – | –
DCAF12 (GeneID 41460) | 1 | 163 | 104 | – | –
CG1316 (GeneID 38526) | 1 | 93.5 | 111 | – | –
Mat1 (GeneID 36130) | 1 | 136 | 160 | – | –
CG4462 (GeneID 42376) | 1 | 206 | 296 | – | –
Fur1 (GeneID 47220) | 1 | 67.2 (active) | 91.5 | – | –
eIF3e (GeneID 39877) | 1 | 102 | 149 | – | –
CG17999 (GeneID 37357) | 1 | 147 | 85.3 | – | –
Cpr49Af (GeneID 36352) | 1 | 137 | 162 | – | –
mTor (GeneID 47396) | 1 | 106 | 95.5 | – | –
RpS18 (GeneID 37292) | 1 | 69 (active) | 101 | – | –
fd3F + CR42499 | 1 | 110 | 85.3 | – | –
fd3F + CR42499 | 2 | 111 | 82.5 | – | –
CG3358 (GeneID 35604) | 1 | 177 | 96.3 | – | –
Syx7 (GeneID 36173) | 1 | 108 | 107 | – | –
CG42562 (GeneID 37008) | 1 | 140 | 104 | – | –
Psi (GeneID 36889) | 1 | 138 | 138 | – | –
Sgs7 (GeneID 47198) | 1 | 103 | 101 | – | –
Gcat (GeneID 39333) | 1 | 84.3 | 81 | – | –
CG15258 (GeneID 34904) | 1 | 145 | 97.2 | – | –
CG32579 (GeneID 318096) | 1 | 95 | 141 | – | –
Rsod (GeneID 43586) | 1 | 82.7 | 93 | – | –
Ir76a (GeneID 40157) | 1 | 103 | 111 | – | –
Tpc2 (GeneID 37983) | 1 | 139 | 202 | – | –
Sodh2 (GeneID 41313) | 1 | 164 | 89.5 | – | –
CG6414 (GeneID 31352) | 1 | 184 | 145 | – | –

Limited to “calcium signal, replicate 2”, for 9 of the entries above:
Cse1 (GeneID 35016)	79
CG7149 (GeneID 34063)	216
CG3061 (GeneID 41707)	142
CG5969 (GeneID 40269)	104
Or74a (GeneID 39929)	124 (active)
Ank (GeneID 43770)	104
Fer1HCH (GeneID 46415)	156
CG13742 + CNT1	141
Neurl4 (GeneID 39558)	126
